Experimental data as given in patent US20240215910A1, “A METHOD FOR […] PRO-OR ANTI […] TEST COMPOUNDS” (GW Research Limited, priority 2020, published 2024).

Columns and labels:
[1] = tested on: tonic hind limb extensor convulsion from a single electroshock; experiment: mini-MEST: maximal electroshock seizure threshold test using minimal sample sizes (n=6/group, log-scale current steps); details: 30 min post dose
Text: (§1) All animals were weighed at the beginning of the study and assigned to treatment groups (n=6/group) based on a mean distribution of body weight across groups.
The first animal within a treatment group was given a shock at the expected or estimated CC50 current. For subsequent animals, the current was lowered or raised depending on the convulsion outcome from the preceding animal in log scale intervals. Data generated from each treatment group were used to calculate the CC50±SEM values for the treatment group (see Table 5 for details).
as §1
The first animal within a treatment group was given a shock at the expected or estimated CC50 current. For subsequent animals, the current was lowered or raised depending on the convulsion outcome from the preceding animal in log scale intervals. Data generated from each treatment group were used to calculate the CC50±SEM values for the treatment group (see Table 10 for details).
as §1
The first animal within a treatment group was given a shock at the expected or estimated CC50 current. For subsequent animals, the current was lowered or raised depending on the convulsion outcome from the preceding animal in log scale intervals. Data generated from each treatment group were used to calculate the CC50±SEM values for the treatment group (see Table 15 for details).

[2] = tested on: tonic hind limb extensor convulsion from a single electroshock; mouse model of generalised seizure; experiment: standard maximal electroshock seizure threshold (MEST) test (n=12/group, 5 mA intervals); details: Example 4, 2.5 mg/kg i.p., 30 min post dose
Experimental: The efficacy of Compound 3 was tested in a mouse model of generalised seizure, the maximal electroshock seizure threshold (MEST) test.
All animals were weighed at the beginning of the study and randomly assigned to treatment groups (n=12/group) based on a mean distribution of body weight across groups.
The first animal within a treatment group was given a shock at the expected or
estimated CC50 current. For subsequent animals, the current was lowered or raised depending on the convulsions outcome from the preceding animal in 5 mA intervals.
Data generated from each treatment group were used to calculate the CC50±SEM values for the treatment group.
The data for each treatment group were recorded as the number of +'s and 0's at each current level employed and this information is then used to calculate the CC50 value (current required for 50% of the animals to show seizure behaviour)±standard error.
Test compound effects were also calculated as percentage change in CC50 from the vehicle control group.
Significant difference between drug-treated animals and controls were assessed according to Litchfield and Wilcoxon (1949).

For `CN1C(=O)CN=C(c2ccccc2)c2cc(Cl)ccc21` [Diazepam, diazepam, reference compound], the “CC50 ± SEM” value ([1]; Example 1, 2.5 mg/kg i.p., vehicle CC50 24.5) was 75.0 mA, the “CC50 ± SEM” value ([1]; Example 1, 2.5 mg/kg i.p., vehicle CC50 24.5, listed as diazepam) was 75.0 mA and the “CC50 ± SEM” value ([1]; Example 2, 2.5 mg/kg i.p., vehicle CC50 22.5) was 89.0 +/− 3.4 mA. The “CC50 ± SEM” value ([1]; Example 2, 2.5 mg/kg i.p., vehicle CC50 22.5, listed as diazepam) was 89.0 mA, the “CC50 ± SEM” value ([1]; Example 3, 2.5 mg/kg i.p., vehicle CC50 23.5) was 46.5 +/− 1.0 mA and the “CC50 ± SEM” value ([1]; Example 3, 2.5 mg/kg i.p., vehicle CC50 23.5, listed as diazepam) was 46.5 mA. The “CC50 +/− SEM” value ([2]; N=11, vehicle CC50 24.3) was 78.5 ± 1.0 mA and the “CC50 +/− SEM” value ([2]; N=11, vehicle CC50 24.3, listed as diazepam) was 78.5 mA.
